# From PubChem BioAssay AID1671190 (National Center for Advancing Translational Sciences (NCATS), 2021)
# By UniProt entry, the sequences of proteins in these tests, tags left out.
# UniProt P18054, whole entry, looked up: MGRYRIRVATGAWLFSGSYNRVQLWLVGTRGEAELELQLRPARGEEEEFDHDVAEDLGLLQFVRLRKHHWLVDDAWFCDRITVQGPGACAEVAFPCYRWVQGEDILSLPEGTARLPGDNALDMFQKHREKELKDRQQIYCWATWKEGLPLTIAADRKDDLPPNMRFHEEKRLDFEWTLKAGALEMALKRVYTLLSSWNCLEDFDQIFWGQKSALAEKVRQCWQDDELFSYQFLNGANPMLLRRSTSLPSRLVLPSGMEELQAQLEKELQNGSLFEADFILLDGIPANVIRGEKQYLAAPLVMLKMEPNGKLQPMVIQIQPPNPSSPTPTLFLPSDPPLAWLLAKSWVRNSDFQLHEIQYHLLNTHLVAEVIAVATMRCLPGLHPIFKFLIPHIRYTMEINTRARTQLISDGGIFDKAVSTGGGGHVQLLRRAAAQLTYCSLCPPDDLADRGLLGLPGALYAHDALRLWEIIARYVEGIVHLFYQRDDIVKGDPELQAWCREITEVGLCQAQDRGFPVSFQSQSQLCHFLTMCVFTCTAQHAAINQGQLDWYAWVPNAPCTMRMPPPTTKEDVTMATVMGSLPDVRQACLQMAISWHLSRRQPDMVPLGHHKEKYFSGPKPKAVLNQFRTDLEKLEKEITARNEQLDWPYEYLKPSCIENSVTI
# The whole screen tested about 580,000 compounds, of which about 6,100 (1.1%) were called active. The shares of active, inactive and inconclusive entries below differ from those in the screen. Calls follow the shape of the dose curve; as a rule, active = well fitted inhibition curve with a large enough effect; inconclusive = small, poorly fitted or top-dose-only effect, or another doubt; inactive = no such curve, though single readings can be large or run the other way. A potency beside an inconclusive call is a rough fit, not a confirmed value.
# Biological target: Polyunsaturated fatty acid lipoxygenase ALOX12 (Homo sapiens) (UniProt P18054)
# Experiment: Primary qHTS assay for inhibitors of human arachidonate 12S-lipoxygenase (ALOX12): Round 2
# Details: purified 12hLO, xylenol orange hydroperoxide absorbance; activity change, negative = inhibition: at 108 µM (top of the series) unless noted
# Summary of the method: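 Hydroperoxide product was detected by ferrous iron/xylenol orange as the 573 to 405 nm absorbance ratio. Arachidonic acid at 40 uM (final) was turned over for 30 min at room temperature by 150 nM human 12hLO, pH 7.0 Hepes buffer, after 15 min compound preincubation.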
# % is scaled to controls: 0 for no effect and ±100 for the full control effect; potency is read from the fitted curve at half-maximal effect.
SMILES,Potency,"activity change, negative = inhibition"
Cn1cc(Br)cc1-c1ncc(Cc2c[nH]c(N)[n+]2C)o1,"inconclusive: 31.6 µM [inhibitor, partial curve]",–
Cc1cccn2c(=O)c(/C=C(\C#N)C(=O)NC3CCS(=O)(=O)C3)c(Oc3ccccc3Cl)nc12 (stereo unspecified),"inconclusive: 70.8 µM [inhibitor, single point]",–
Cc1cc2oc(=O)cc(CN3CCCCCC3)c2cc1C(C)C,active: 17.8 µM,–
Cc1ccccc1C(=O)Nc1nc2nc(C)c(C)c(=O)n2[nH]1,"inconclusive: 22.4 µM [inhibitor, partial curve, poor fit]",–
CC(=O)c1ccc(NC(=S)NCCSc2ccc(Cl)cc2)cc1,"inconclusive: 50.1 µM [inhibitor, partial curve, poor fit]",–
O=C(NC(c1ccccc1)c1ccsc1)C1CCN(CCOc2ccc(Cl)cc2Cl)CC1 (stereo unspecified),"inconclusive: 89.1 µM [inhibitor, partial curve, poor fit]",–
N#C/C(=C/c1ccc(-c2ccc(F)cc2)o1)c1nc2ccccc2[nH]1,"inconclusive: 5.62 µM [inhibitor, partial curve, poor fit]",–
O=C(Nc1ccc2oc(-c3ccccc3F)cc(=O)c2c1)c1ccccc1F,inactive,–
CCC1(C)Cc2ccccc2-c2nc(SCC(N)=O)[nH]c(=O)c21 (stereo unspecified),inactive,–
Cc1nc2c(C(=O)O)cnn2c(C)c1Cc1ccccc1,"inconclusive: 8.91 µM [inhibitor, full curve, poor fit]",–
COc1cc(C(=O)NC2CCCCN(C)C2=O)cc(OC)c1OC (stereo unspecified),inactive,–
CSc1nsc(SC)c1C(=O)N1CCN(S(=O)(=O)c2ccc(C)cc2)C1C (stereo unspecified),inactive,–
O=C(C[n+]1cccc(O)c1)NCc1ccc(Cl)cc1,"inconclusive: 56.2 µM [inhibitor, partial curve, poor fit]",–
CC(=O)C1CCC2C3CCC4=CC(=O)CCC4(C)C3(F)C(O)CC12C (stereo unspecified),inactive,–
Cc1c(NC(=O)C(C)OC(=O)c2cc3c4ccccc4n(C)c3s2)c(=O)n(-c2ccccc2)n1C (stereo unspecified),"inconclusive: 44.7 µM [inhibitor, partial curve, poor fit]",–
c1ccc2oc(NC3=NCN(CC4CCCO4)CN3)nc2c1 (stereo unspecified),"inconclusive: 28.2 µM [inhibitor, single point]",–
O=C(Nc1ccc([N+](=O)[O-])cc1Cl)c1cccc([N+](=O)[O-])c1,"inconclusive: 112 µM [inhibitor, single point]",–
Cc1ccc([N+](=O)[O-])cc1C#Cc1ccccc1,"inconclusive: 7.08 µM [inhibitor, full curve]",–
COCc1cc(=O)n2[nH]c(-c3ccco3)cc2n1,"inconclusive: 31.6 µM [inhibitor, single point]",–
COC(=O)/C(C#N)=C/c1c[nH]c2ccccc12,"inconclusive: 44.7 µM [inhibitor, partial curve, poor fit]",–
CCCCOC(=O)CSc1nc2c(c(=O)[nH]c(=O)n2C)n1C/C=C(\C)Cl,"inconclusive: 50.1 µM [inhibitor, partial curve, poor fit]",–
COC(=O)C1=C(C(=O)OC)C2(OC1c1ccc(Br)cc1)C(=O)c1ccccc1C2=O (stereo unspecified),"inconclusive: 17.8 µM [inhibitor, partial curve, poor fit]",–

# 15 entries already listed, ordered by molar mass, falling.
SMILES,Potency,"activity change, negative = inhibition"
Cc1cccn2c(=O)c(/C=C(\C#N)C(=O)NC3CCS(=O)(=O)C3)c(Oc3ccccc3Cl)nc12 (stereo unspecified),"inconclusive: 70.8 µM [inhibitor, single point]",–
Cc1c(NC(=O)C(C)OC(=O)c2cc3c4ccccc4n(C)c3s2)c(=O)n(-c2ccccc2)n1C (stereo unspecified),"inconclusive: 44.7 µM [inhibitor, partial curve, poor fit]",–
CSc1nsc(SC)c1C(=O)N1CCN(S(=O)(=O)c2ccc(C)cc2)C1C (stereo unspecified),inactive,–
CCCCOC(=O)CSc1nc2c(c(=O)[nH]c(=O)n2C)n1C/C=C(\C)Cl,"inconclusive: 50.1 µM [inhibitor, partial curve, poor fit]",–
O=C(Nc1ccc2oc(-c3ccccc3F)cc(=O)c2c1)c1ccccc1F,inactive,–
CC(=O)C1CCC2C3CCC4=CC(=O)CCC4(C)C3(F)C(O)CC12C (stereo unspecified),inactive,–
Cn1cc(Br)cc1-c1ncc(Cc2c[nH]c(N)[n+]2C)o1,"inconclusive: 31.6 µM [inhibitor, partial curve]",–
COc1cc(C(=O)NC2CCCCN(C)C2=O)cc(OC)c1OC (stereo unspecified),inactive,–
N#C/C(=C/c1ccc(-c2ccc(F)cc2)o1)c1nc2ccccc2[nH]1,"inconclusive: 5.62 µM [inhibitor, partial curve, poor fit]",–
O=C(Nc1ccc([N+](=O)[O-])cc1Cl)c1cccc([N+](=O)[O-])c1,"inconclusive: 112 µM [inhibitor, single point]",–
c1ccc2oc(NC3=NCN(CC4CCCO4)CN3)nc2c1 (stereo unspecified),"inconclusive: 28.2 µM [inhibitor, single point]",–
Cc1ccccc1C(=O)Nc1nc2nc(C)c(C)c(=O)n2[nH]1,"inconclusive: 22.4 µM [inhibitor, partial curve, poor fit]",–
Cc1nc2c(C(=O)O)cnn2c(C)c1Cc1ccccc1,"inconclusive: 8.91 µM [inhibitor, full curve, poor fit]",–
COCc1cc(=O)n2[nH]c(-c3ccco3)cc2n1,"inconclusive: 31.6 µM [inhibitor, single point]",–
COC(=O)/C(C#N)=C/c1c[nH]c2ccccc12,"inconclusive: 44.7 µM [inhibitor, partial curve, poor fit]",–

# Next compounds:

SMILES,Potency,"activity change, negative = inhibition"
COC(=O)c1nn(-c2ccc(OC)cc2)c(=O)cc1NN,"inconclusive: 126 µM [inhibitor, single point]",–
O=C(CCc1ccc(O)c(O)c1)N/N=C/c1cc2c(cc1[N+](=O)[O-])OCO2,"inconclusive: 2.82 µM [inhibitor, full curve, poor fit]",–
CCCCOc1ccc(CNC(=O)c2ccc(-c3nc(CN4CCc5ccccc54)c(C)o3)cc2)cc1,inactive,–
CC(=O)Nc1c(I)cc(I)c(C(=O)O)c1I,"inconclusive: 50.1 µM [inhibitor, partial curve, poor fit]",–
O=C(Cc1c[nH]c2ccccc12)Nc1ccc2ccccc2c1,"inconclusive: 44.7 µM [inhibitor, partial curve, poor fit]",–
Cc1cc(NC(=O)N2CCCC(Cn3c(C)nc4cccnc43)C2)ccc1Br (stereo unspecified),"inconclusive: 39.8 µM [inhibitor, full curve]",–
O=C(Nc1cccc(C(F)(F)F)c1)c1nc2c(o1)CCN(Cc1ccc(F)cc1)CC2,"inconclusive: 28.2 µM [inhibitor, partial curve]",–
O=C(O)CSCc1ccsc1,"inconclusive: 141 µM [inhibitor, single point]",–
CN(c1ccccc1)S(=O)(=O)c1ccc(C(=O)Nc2nnc(-c3ccco3)o2)cc1,"inconclusive: 28.2 µM [inhibitor, partial curve, poor fit]",–
CCc1cccc(NC(=O)C2CCCN(S(=O)(=O)c3cccnc3)C2)c1 (stereo unspecified),inactive,–
CCn1c(C)[n+](CC(O)COCC2CC=CCC2)c2ccccc21 (stereo unspecified),"inconclusive: 31.6 µM [inhibitor, partial curve, poor fit]",–
CCOC(=O)c1cnc2c(ccc3ccccc32)c1Nc1ccccc1OC,"inconclusive: 89.1 µM [inhibitor, partial curve, poor fit]",–
COc1ccc(Cl)cc1NC(=O)Nc1cn(C)nc1C,"inconclusive: 112 µM [inhibitor, single point]",–
N#Cc1c(N)[nH]c(=S)c(C#N)c1-c1ccccc1,"inconclusive: 39.8 µM [inhibitor, partial curve, poor fit]",–
Cc1cccc(N2CCC(N=CN(C)C)=N2)c1,active: 44.7 µM,–
O=C(NCCc1csc(-c2ccc(F)cc2)n1)c1cccs1,–,inconclusive: -31% [inhibitor]
COc1cc(/C=C/C(=O)c2ccc(O)cc2)cc(Br)c1O,"inconclusive: 44.7 µM [inhibitor, partial curve, poor fit]",–
c1ccc(CCC2CCCCN2Cc2nc(-c3ccc4c(c3)OCO4)no2)nc1 (stereo unspecified),inactive,–
CC(Sc1ccc(Br)cn1)C(=O)Nc1cccc(Br)c1 (stereo unspecified),"inconclusive: 50.1 µM [inhibitor, partial curve, poor fit]",–
Cc1cc(C2=NNC(=NC3CC3)SC2)c(C)n1-c1c(C)n(C)n(-c2ccccc2)c1=O,inactive,–
CC(C)C(NC(=O)c1cccs1)C(=O)NC1=NCCS1 (stereo unspecified),"inconclusive: 5.62 µM [inhibitor, full curve, poor fit]",–
O=C(CN1CCC(NC(=O)C2CCCCC2)CC1)Nc1ccccc1,"inconclusive: 0.562 µM [inhibitor, full curve, poor fit]",–

SMILES,Potency,"activity change, negative = inhibition"
CCCCC(=O)NC(c1cccc([N+](=O)[O-])c1)c1ccc2cccnc2c1O (stereo unspecified),"inconclusive: 12.6 µM [inhibitor, full curve, poor fit]",–
COc1ccc2[nH]cc(C(=O)CN3CC(C)CC(C)C3)c2c1 (stereo unspecified),"inconclusive: 89.1 µM [inhibitor, single point]",–
COc1ccc(C2C(C(=O)c3ccco3)=C(O)C(=O)N2CC2CCCO2)cc1OC (stereo unspecified),"inconclusive: 39.8 µM [inhibitor, partial curve, poor fit]",–
CS(=O)(=O)c1cccc(C(=O)NC(c2ccccc2)c2ccccc2)c1,"inconclusive: 126 µM [inhibitor, single point]",–
CCN(CC)C(=O)C1CCCN(Cc2ccc(OC)c(C)c2)C1 (stereo unspecified),"inconclusive: 0.708 µM [inhibitor, full curve, poor fit]",–
COc1cccc(NC(=O)CSc2ccc(-c3ccco3)nn2)c1,"inconclusive: 25.1 µM [inhibitor, partial curve, poor fit]",–
Cc1cc2nc3s/c(=C/c4ccc(-c5ccccc5C(=O)O)o4)c(=O)n3c2cc1C,"inconclusive: 35.5 µM [inhibitor, single point]",–
COCCNc1oc(-c2ccc(COc3ccc(OC)cc3)o2)nc1C#N,"inconclusive: 126 µM [inhibitor, single point]",–
O=C(c1cccc(N2CCCC2=O)c1)N1CCCC(O)(CN2CCCC2)C1 (stereo unspecified),inactive,–
Cc1ccccc1OCc1nnc(SCC(=O)NC2CCCCC2)n1C,"inconclusive: 63.1 µM [inhibitor, partial curve, poor fit]",–
COc1ccc(C(=O)NCCSCc2ccc(C)cc2)cc1,inactive,–
Cc1ccccc1-n1c(C)cc(/C=C2\NC(=O)NC2=O)c1C,"inconclusive: 50.1 µM [inhibitor, partial curve]",–
CSc1nc(C)c2c(n1)N(c1ccc(C(C)C)cc1)CC2,inactive,–
S=C(NCCc1ccc(Cl)cc1)NC1CCCC1,"inconclusive: 39.8 µM [inhibitor, partial curve, poor fit]",–
Cc1ccc(-c2cnc(CCC(=O)Nc3ccc(Cl)cc3F)o2)cc1,"inconclusive: 100 µM [inhibitor, partial curve, poor fit]",–
CC(C)CNC(=O)C1(C)CCCN1Cc1ccccc1OC(F)F (stereo unspecified),inactive,–
c1ccc(-c2cccc(-n3ccnc3-c3cc4n(n3)CCCNC4)c2)nc1,inactive,–
Cc1ccc2c(n1)N(C)[C@H](CO)CCN(C1Cc3ccccc3C1)C2,inactive,–
Cc1cnc(CC2CCCNC2)n1C(C)C (stereo unspecified),inactive,–
O=C(C1CC(=O)N(c2n[nH]c3ccccc23)C1)N1CCc2ccccc2C1 (stereo unspecified),"inconclusive: 39.8 µM [inhibitor, single point]",–
Cc1cc(N2CCCCC2)nc(Nc2ccc(NC(=O)Nc3ccccc3)cc2)n1,"inconclusive: 50.1 µM [inhibitor, partial curve, poor fit]",–
COc1ccc(NC(=O)C2Cc3c(-c4ccc(Cl)cc4)ccnc3O2)cn1 (stereo unspecified),"inconclusive: 89.1 µM [inhibitor, partial curve, poor fit]",–
